Results are given in words; binding and its absence hold for the method and conditions named. In cells and extracts the contact can be indirect. These calls come from enrichment with a bait or labelling near it, and not all partners need be listed.
target: TbMCM-BP-PTP (Trypanosoma brucei) (UniProt Q57V33); assay: affinity purification with mass spectrometry; tandem affinity purification (IgG, TEV elution, anti-ProtC) of TbMCM-BP-PTP from crude extract of PF T. brucei; whole gel lane of the final eluate analysed by LC-MS/MS

By UniProt entry, the sequences of proteins in these tests, tags left out. Where a name states a change or a piece, a line headed by the entry shows the natural chain unless it says otherwise.
UniProt Q389T6: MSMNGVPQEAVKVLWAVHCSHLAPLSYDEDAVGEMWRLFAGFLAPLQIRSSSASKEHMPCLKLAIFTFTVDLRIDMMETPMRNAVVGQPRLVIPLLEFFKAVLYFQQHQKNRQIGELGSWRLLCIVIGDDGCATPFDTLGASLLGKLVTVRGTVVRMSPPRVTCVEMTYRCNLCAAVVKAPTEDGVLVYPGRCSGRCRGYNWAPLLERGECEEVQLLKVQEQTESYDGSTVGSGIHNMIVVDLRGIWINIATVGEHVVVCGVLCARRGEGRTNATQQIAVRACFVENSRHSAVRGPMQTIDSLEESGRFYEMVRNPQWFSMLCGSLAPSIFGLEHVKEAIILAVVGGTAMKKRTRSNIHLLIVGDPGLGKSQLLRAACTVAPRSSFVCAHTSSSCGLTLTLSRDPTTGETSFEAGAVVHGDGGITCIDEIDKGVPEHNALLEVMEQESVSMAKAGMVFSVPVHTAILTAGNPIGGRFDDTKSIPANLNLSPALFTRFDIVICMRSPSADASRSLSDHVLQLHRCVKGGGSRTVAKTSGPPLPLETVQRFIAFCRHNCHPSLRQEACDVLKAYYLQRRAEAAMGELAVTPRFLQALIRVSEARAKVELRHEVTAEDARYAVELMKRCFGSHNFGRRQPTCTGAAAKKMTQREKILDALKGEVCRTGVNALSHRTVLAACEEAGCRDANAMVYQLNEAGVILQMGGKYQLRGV
UniProt Q383B6: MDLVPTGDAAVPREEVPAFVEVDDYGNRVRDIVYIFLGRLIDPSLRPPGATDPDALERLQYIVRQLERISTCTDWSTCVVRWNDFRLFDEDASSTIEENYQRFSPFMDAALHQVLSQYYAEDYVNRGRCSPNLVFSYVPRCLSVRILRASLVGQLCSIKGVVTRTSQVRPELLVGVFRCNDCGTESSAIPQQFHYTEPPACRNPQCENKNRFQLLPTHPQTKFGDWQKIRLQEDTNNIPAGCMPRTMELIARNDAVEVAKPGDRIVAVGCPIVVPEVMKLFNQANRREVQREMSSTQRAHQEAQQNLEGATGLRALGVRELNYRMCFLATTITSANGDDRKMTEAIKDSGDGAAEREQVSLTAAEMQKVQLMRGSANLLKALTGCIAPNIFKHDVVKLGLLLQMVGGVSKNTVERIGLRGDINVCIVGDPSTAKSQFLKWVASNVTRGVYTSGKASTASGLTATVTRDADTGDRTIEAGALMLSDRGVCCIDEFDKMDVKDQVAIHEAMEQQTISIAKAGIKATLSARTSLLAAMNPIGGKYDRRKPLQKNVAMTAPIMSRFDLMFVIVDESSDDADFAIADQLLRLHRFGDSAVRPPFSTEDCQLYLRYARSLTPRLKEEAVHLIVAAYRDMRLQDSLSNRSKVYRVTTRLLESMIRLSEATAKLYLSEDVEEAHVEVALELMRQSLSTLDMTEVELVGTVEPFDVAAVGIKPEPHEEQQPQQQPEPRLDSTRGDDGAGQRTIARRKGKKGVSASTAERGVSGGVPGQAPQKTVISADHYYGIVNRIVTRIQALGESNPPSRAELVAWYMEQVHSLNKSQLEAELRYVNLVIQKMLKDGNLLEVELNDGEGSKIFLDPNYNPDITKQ
UniProt Q382V6: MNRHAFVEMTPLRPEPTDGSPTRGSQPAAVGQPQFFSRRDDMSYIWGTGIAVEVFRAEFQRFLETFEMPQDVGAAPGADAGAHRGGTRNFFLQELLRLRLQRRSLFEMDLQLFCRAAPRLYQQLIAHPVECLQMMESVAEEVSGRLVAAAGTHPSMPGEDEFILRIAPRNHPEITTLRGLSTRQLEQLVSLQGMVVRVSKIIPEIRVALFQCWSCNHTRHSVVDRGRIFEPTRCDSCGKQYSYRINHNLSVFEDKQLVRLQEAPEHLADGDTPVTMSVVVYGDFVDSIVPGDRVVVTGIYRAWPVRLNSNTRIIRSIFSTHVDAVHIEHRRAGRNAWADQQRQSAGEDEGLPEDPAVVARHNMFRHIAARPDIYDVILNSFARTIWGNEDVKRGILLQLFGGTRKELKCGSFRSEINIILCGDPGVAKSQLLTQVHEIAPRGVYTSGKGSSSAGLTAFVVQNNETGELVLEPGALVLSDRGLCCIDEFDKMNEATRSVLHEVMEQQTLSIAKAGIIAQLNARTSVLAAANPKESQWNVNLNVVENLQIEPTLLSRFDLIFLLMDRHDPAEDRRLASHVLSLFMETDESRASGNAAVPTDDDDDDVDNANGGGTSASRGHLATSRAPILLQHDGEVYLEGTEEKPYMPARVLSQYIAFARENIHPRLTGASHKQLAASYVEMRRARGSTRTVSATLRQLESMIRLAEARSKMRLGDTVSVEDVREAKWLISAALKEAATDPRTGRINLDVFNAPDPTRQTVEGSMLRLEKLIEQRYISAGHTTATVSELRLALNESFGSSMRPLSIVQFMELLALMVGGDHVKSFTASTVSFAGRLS

| binding | Substance |
| --- | --- |
| binds | MCM8 (from UniProt Q389T6) |
| binds | MCM6 (from UniProt Q383B6) |
| binds | MCM4 (from UniProt Q382V6) |

Reference: PMC3581582
